The target of series [1] is LmrR (Lactococcus lactis) (UniProt A2RI36). The series can be described thus: ITC. The conditions noted are these: 10 mM NaPi pH 6.8, 100 mM NaCl, 25 C (ITC; same buffer for NMR), 5% DMSO in riboflavin titrations, recombinant protein, protein details: C-terminal His6.
The target in series [2] is LmrR L17A (Lactococcus lactis) (UniProt A2RI36). The series can be described thus: ITC?
The conditions noted are these: relative to wild type, value only in figure; 10 mM NaPi pH 6.8, 100 mM NaCl, 25 C (ITC; same buffer for NMR); 5% DMSO in riboflavin titrations; recombinant protein; protein details: C-terminal His6.

Protein sequences, listed by entry. Tags and fused reporters are not part of them. Lines headed by an entry give the natural chain unless they say otherwise; changes in a name come on top.
UniProt A2RI36, entry or part of it: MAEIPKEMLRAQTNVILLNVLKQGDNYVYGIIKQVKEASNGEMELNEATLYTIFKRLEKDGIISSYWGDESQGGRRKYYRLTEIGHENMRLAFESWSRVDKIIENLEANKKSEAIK

In series [3] the target is LmrR G85A (Lactococcus lactis) (UniProt A2RI36). As to the kind of experiment: ITC?
The conditions noted are these: relative to wild type, value only in figure; 10 mM NaPi pH 6.8, 100 mM NaCl, 25 C (ITC; same buffer for NMR); 5% DMSO in riboflavin titrations; recombinant protein; protein details: C-terminal His6.

In series [4] the target is LmrR (Lactococcus lactis) (UniProt A2RI36). The series can be described thus: NMR competition. The note with it: out-competed by the PadR-consensus operator (48 uM in the reference complex), 30 uM LmrR dimer; 10 mM NaPi pH 6.8, 100 mM NaCl, 25 C (ITC; same buffer for NMR); 5% DMSO in riboflavin titrations; recombinant protein; protein details: C-terminal His6.

Construct, isoform or probe ends are uncertain for at least one entry. For some assays here: Weaker means in comparison with the reference protein, sequence or condition of that experiment. For some assays here: At least one verdict rests on a figure or table, not on a statement of the authors.

Turning to “CAATTTAATGTAAAGTAGTTTACATTATTTAAC (double strand) [lmrCD operator 33 bp]”, the Kd in series [1] (10 uM riboflavin) is 220 nM. Besides, the binding result in series [2] and in series [3] was “binds more weakly” each time.

For the sequence “GCTTGTTTACTAAAAAAAATAATGTTATAATTATC (double strand) [-10/-35 lmrCD promoter 35 bp]”, the binding result in series [4] is listed as “binds more weakly”.

For the sequence “TACATAGTAATGTGAAGTATAATATACTTTGTT (double strand) [lmrR operator 33 bp]”, the binding result in series [1] (value only in figure) was “binds”.

These data come from publication PMC5428041, “Dynamic equilibrium on DNA defines transcriptional regulation of a multidrug binding transcriptional repressor, LmrR” (Scientific Reports, 2017).
